Sequences of proteins named here, by UniProt entry; tags and fusion partners are left off.
UniProt Q91Z83: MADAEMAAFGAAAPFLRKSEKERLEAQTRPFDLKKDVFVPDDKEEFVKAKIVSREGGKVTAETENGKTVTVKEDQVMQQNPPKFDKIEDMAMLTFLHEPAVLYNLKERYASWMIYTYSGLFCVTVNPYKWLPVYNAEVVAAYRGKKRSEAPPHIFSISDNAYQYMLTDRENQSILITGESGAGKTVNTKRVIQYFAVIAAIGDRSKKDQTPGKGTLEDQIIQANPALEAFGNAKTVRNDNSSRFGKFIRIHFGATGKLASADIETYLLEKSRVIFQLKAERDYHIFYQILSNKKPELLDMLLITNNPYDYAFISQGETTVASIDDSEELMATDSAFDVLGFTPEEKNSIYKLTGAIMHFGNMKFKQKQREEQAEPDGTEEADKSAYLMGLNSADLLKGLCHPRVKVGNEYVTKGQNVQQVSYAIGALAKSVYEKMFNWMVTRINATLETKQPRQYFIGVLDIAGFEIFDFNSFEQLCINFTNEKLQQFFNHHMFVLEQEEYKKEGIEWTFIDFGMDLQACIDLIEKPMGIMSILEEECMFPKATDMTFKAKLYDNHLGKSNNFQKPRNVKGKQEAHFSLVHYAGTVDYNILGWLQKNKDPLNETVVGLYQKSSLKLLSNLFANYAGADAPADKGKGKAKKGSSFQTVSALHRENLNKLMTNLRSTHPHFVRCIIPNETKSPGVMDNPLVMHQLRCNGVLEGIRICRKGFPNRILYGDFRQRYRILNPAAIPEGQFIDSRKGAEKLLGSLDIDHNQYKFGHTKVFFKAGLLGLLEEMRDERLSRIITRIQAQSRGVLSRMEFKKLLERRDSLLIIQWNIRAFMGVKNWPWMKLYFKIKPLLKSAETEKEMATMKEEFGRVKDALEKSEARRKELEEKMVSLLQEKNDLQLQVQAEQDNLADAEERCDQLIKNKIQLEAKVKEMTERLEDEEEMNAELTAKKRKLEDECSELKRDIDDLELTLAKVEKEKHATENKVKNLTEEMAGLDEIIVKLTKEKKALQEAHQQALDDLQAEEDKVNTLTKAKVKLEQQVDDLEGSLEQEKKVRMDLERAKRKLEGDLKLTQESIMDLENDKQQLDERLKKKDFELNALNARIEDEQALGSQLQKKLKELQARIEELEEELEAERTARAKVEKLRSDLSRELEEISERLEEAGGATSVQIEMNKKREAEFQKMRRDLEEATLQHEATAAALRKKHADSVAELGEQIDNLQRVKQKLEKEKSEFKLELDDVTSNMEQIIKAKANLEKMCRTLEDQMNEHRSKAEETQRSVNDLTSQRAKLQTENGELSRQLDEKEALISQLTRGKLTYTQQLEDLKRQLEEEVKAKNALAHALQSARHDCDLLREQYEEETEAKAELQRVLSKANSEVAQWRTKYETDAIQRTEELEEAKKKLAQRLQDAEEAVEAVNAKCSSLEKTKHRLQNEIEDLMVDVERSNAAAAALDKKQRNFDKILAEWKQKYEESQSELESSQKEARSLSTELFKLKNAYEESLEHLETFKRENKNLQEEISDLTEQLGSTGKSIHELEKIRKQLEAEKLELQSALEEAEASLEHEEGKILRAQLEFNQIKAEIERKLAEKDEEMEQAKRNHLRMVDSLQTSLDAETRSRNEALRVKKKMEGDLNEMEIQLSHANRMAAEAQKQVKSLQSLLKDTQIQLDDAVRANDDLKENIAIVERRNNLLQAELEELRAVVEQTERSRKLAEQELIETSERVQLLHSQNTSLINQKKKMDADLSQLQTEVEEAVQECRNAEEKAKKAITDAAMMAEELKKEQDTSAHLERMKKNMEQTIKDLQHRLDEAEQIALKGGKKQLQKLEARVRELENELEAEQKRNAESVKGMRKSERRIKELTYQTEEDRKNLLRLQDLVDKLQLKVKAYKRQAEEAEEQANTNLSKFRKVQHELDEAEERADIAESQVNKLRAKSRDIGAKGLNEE
UniProt Q02566: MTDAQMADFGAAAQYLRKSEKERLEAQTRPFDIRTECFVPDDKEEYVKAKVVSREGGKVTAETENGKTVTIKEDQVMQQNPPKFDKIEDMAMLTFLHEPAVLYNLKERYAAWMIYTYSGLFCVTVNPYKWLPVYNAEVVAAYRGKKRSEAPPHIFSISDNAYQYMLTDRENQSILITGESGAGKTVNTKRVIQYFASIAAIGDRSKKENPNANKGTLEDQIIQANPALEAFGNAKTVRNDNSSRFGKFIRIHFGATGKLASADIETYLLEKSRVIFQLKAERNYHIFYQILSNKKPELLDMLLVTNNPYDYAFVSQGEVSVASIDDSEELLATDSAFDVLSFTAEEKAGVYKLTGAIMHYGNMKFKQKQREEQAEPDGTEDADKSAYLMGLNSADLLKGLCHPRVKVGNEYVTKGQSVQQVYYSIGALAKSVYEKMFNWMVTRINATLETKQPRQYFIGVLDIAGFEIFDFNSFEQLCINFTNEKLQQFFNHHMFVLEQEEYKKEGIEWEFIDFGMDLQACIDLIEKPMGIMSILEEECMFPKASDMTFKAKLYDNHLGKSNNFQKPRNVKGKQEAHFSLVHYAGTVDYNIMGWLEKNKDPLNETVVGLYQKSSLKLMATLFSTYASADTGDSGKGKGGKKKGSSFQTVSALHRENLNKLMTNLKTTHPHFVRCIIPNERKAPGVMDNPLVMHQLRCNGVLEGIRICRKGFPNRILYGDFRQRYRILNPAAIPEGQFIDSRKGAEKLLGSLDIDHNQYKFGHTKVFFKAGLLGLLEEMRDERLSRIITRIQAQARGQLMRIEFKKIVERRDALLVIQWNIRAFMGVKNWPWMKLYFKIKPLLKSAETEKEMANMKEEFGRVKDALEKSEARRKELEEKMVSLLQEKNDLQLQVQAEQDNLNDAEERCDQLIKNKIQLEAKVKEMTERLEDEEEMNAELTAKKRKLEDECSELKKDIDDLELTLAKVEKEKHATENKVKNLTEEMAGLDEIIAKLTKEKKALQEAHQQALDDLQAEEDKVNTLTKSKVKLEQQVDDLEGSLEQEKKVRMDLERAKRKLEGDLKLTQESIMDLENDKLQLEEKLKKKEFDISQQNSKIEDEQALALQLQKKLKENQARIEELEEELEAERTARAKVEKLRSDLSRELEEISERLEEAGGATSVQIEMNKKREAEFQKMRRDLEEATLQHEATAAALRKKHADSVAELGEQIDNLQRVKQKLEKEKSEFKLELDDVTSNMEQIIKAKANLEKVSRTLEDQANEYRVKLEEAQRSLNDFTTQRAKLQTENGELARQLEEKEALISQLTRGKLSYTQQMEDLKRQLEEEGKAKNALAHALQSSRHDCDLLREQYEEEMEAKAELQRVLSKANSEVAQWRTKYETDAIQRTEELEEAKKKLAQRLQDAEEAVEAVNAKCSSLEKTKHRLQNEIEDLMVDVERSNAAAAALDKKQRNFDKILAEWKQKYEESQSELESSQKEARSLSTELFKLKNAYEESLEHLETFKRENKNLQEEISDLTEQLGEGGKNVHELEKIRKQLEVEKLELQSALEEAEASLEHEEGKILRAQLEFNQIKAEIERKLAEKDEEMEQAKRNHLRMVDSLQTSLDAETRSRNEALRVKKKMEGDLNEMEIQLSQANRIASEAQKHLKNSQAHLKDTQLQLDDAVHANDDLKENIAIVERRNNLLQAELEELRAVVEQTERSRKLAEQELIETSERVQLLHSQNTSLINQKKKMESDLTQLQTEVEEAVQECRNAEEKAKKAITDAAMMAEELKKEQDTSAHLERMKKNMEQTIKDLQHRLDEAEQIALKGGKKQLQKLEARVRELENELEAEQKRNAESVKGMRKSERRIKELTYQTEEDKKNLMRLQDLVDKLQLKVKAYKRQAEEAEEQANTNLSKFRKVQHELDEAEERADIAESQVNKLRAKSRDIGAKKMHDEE

According to publication PMC8281596:

Biological target: T1, YTHDF2 (mouse (endogenous in primary mouse cardiomyocytes)) (UniProt Q91YT7)
T1 sequence: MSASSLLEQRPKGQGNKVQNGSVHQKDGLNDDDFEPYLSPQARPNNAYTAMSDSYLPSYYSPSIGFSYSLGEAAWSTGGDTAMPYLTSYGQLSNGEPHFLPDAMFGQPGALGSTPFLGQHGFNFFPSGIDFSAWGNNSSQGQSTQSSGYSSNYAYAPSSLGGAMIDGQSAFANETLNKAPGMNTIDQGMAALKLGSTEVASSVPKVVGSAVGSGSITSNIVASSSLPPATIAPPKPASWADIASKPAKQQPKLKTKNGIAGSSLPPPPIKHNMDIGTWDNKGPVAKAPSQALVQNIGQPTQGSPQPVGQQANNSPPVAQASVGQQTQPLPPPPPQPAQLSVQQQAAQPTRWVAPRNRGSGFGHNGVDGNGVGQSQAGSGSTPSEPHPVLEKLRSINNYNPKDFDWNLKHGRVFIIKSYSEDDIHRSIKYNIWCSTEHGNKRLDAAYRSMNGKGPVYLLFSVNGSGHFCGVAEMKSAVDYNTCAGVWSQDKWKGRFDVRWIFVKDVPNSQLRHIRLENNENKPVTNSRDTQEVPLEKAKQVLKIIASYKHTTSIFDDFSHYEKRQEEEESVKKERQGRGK
Test: affinity purification with mass spectrometry; lysate of primary cardiomyocytes treated with ISO or DMSO for 24 h; 300 μg proteins incubated with anti-YTHDF2 or rabbit IgG at 4 °C overnight, protein A/G-agarose beads; SDS-PAGE, silver stain, LC-MS/MS

| Substance | binding |
| --- | --- |
| MYH7 (beta-myosin heavy chain) (from UniProt Q91Z83 1-1935) | binds |
| MYH6 (α-myosin heavy chain) (from UniProt Q02566 1-1938) | binds |

These are yes or no findings as the source states them, for the method shown. Binding seen in cells or lysates may run through a third protein. Here binding means that the protein was enriched with, or labelled near, the bait; the list need not be complete.
